Reference: patent US8236756B2 (Consejo Superior de Investigaciones Clentificas (CSIC), priority 2003, dated 2012)
*: point of attachment. Cbz = O=C(OCc1ccccc1)*; OtBu = CC(C)(C)O*

Experiment: general procedure: solution-phase peptide synthesis; HOBt/DIC; BOP/TEA

| Substance | step yield (late stage modification step) [% yield] | other results |
| --- | --- | --- |
| Cbz-VPVP-OH | 84 | – |
| Cbz-VPVP-OtBu | – | step yield (coupling step): 68% yield |
| H-Val-Pro-Val-Pro-Ara-C | 90 | – |
| Z-Val-Pro-Val-Pro-Ara-C | – | conjugation yield (conjugation step): 22% yield |
